Assay results as given in patent US20240117029A1.
Results are given in words; binding and its absence hold for the method and conditions named.

B1: 1G9 (antibody, V domains shown)
VH: QSLEESGGDLVKPGASLTLTCKASGIDFSLYSYMCWVRQAPGKGLEWIACVDAGASGSTYYASWAKGRFTISKTSSTTVTLQMTSLTAADTATYFCARGILYYTWPYPAGAIDAFDSWGPGTLVTVSS
VL: AYDMTQTPASVSEPVGGTVTIKCQASESISNYLSWYQQKPGQPPKLLIYKASTLASGVPSRFKGSGSGTEYTVTISGVQSDDAATYYCQQSYSSSNVFNTFGGGTEVVVK
B2: Humanized 11K2 (antibody, human IgG1, V domains shown)
VH: QVQLVQSGAEVKKPGSSVKVSCKASGLTISDTYMHWVRQAPGQGLEWMGRIDPANGNTKFDPKFQGRVTITADTSTSTAYMELSSLRSEDTAVYYCARGVFGFFDYWGQGTTVTVSS
VL: DIQMTQSPSSLSASVGDRVTITCKATEDIYNRLAWYQQKPGKAPKLLISGATSLETGVPSRFSGSGSGTDYTLTISSLQPEDFATYYCQQFWSAPYTFGGGTKVEIK
B3: 1A5 (antibody, V domains shown)
VH: QEQLVESGGDLVKPEGSLTLTCTASGFSFSTSYWMCWVRQAPGKGLELIACISSSIGVTYYASWAEGRFTISKTSSTTVTLQMTSLTVADTATYFCARTTDDNWNVGFNLWGPGTLVTVSS
VL: AYDMTQTPASVEVGVGGTVTIKCQASQSIGNRYLSWYQQKPGQPPKLLIYGTSTLASGVSSRFKGSGSGTQFTLTISGVESADSATYYCQQGATISYLDNAFGGGTEVVVK

Biological target: huCCL13 wild type
Test: SPR (Biacore T200), 25 C, pH 7.4; antibody captured on anti-human IgG (Fc), chemokine injected at 5 nM and 20 nM

binding | Binder
no binding (tested: 20 nM) | B1
no binding (tested: 20 nM) | B2
no binding (tested: 20 nM) | B3
